Test results reported in publication PMC7819943, “Rice protein-binding microarrays: a tool to detect cis-acting elements near promoter regions in rice”.
The other results are listed elsewhere or left out.

Molecular target: T1, OsSMF1 (Oryza sativa, UniProt Q6ZLB0 1-436)
T1 sequence: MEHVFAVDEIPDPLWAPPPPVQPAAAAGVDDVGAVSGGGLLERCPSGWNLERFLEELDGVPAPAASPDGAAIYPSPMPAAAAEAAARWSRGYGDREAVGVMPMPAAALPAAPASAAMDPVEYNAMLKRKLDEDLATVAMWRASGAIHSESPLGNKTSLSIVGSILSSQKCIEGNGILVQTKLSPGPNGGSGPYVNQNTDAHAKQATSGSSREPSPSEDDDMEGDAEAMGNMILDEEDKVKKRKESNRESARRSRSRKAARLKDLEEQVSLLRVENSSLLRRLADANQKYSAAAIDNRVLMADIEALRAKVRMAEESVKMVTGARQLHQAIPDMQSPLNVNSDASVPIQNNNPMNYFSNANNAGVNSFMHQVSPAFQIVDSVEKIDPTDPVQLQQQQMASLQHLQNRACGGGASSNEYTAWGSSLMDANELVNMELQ
Assay: protein-binding microarray (RPBM); PBS, 2% BSA, 51.3 ng/ul salmon testes DNA, 50 uM zinc acetate, 200 nM TF, 25 C, 1 h; high values mean tight binding
Details: protein: recombinant; tags: N-terminal polyhistidine and DsRed monomer fusion (pET32a); chain copies: 2; label: CyDye5-dUTP incorporated in the synthesized complementary strand; 3' TTTTT single-stranded linker to array surface; dsDNA, one strand shown
Summary of the method: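 A custom Agilent array was converted to double-stranded form by primer extension with Cy5-dUTP and blocked with 2% BSA. Protein at 200 nM in PBS with 2% BSA, salmon testes DNA and 50 µM zinc acetate was applied for 1 h at 25 °C, followed by washing. The proteins were polyhistidine–DsRed N-terminal fusions of transcription factors, expressed in E. coli BL21-CodonPlus and Ni–NTA-purified. The binding signal is per-feature fluorescence intensity (arbitrary units) from an Axon 4000B scanner.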

Row | Sequence | binding signal
1 | GAAATTGGCAGTTTGTTTGCCTGTGTTGGCACCTACACAACGGAGTCACCTAGTGCAG | 4340 fluorescence intensity (a.u.)
2 | GGCCGTCCAGCGTAATTATGCACTCCTGTCCACTCGTCCACGGAGTCACCTAGTGCAG | 3330 fluorescence intensity (a.u.)
3 | ACTAGAATTGAGTTGGATTGTGAGCTGTACGTGGACTGATCGGAGTCACCTAGTGCAG | 6410 fluorescence intensity (a.u.)
4 | TGCTAGGAGCTGAAACAAGCCGTCGTCTCCTTCCTTCTGTCGGAGTCACCTAGTGCAG | 5180 fluorescence intensity (a.u.)
5 | CCGTTGTTGGTCGGAGCATCACCTGGGCGGTGTTTCCCTGCGGAGTCACCTAGTGCAG | 15800 fluorescence intensity (a.u.)
6 | AAGGTTTGAATCCTCCTACCTACGCATGCTTCGGAATCCTCGGAGTCACCTAGTGCAG | 3300 fluorescence intensity (a.u.)
7 | TCGGCGTTCGCGTAGAATCACACGTGCCGCGCGTTCCCTGCGGAGTCACCTAGTGCAG | 3880 fluorescence intensity (a.u.)
8 | GGCCCCACCTGTCAGTGAGACGACCATCGCGGTAACCGCACGGAGTCACCTAGTGCAG | 19100 fluorescence intensity (a.u.)
9 | CATAAACGACGTGGGAGTATTATTATTCAACGCTGAGTCACGGAGTCACCTAGTGCAG | 5060 fluorescence intensity (a.u.)
10 | GGATGGGGCGCAGCGCAATGCAAAACTGCAGATGCATGCACGGAGTCACCTAGTGCAG | 3210 fluorescence intensity (a.u.)
11 | GCACGGCACGGCCCGGCCTAAATGAGCCGTGCCTAATCGTCGGAGTCACCTAGTGCAG | 16800 fluorescence intensity (a.u.)
12 | TGAGAAATGTAAATATGTTTACGAGAAATGACTAGTAGTTCGGAGTCACCTAGTGCAG | 22100 fluorescence intensity (a.u.)
13 | CCACCACCACCACCACCACCACCTCCCCTCTCCCATTCGACGGAGTCACCTAGTGCAG | 3500 fluorescence intensity (a.u.)
14 | CAACATTAGCAATTAAAATTGCGGGTTATTTGTAAAAGTCCGGAGTCACCTAGTGCAG | 32000 fluorescence intensity (a.u.)
15 | CAACATTTCTGAGTTGGCGCATCACTAATTTTGGGAATGACGGAGTCACCTAGTGCAG | 3960 fluorescence intensity (a.u.)
16 | GACGGCGCGGTCGACCCGCCGTCTGCCACGTCAGCTTGCCCGGAGTCACCTAGTGCAG | 27400 fluorescence intensity (a.u.)
17 | GCAGGTAGAGAGAGAGATGGCGGACGCTGATGACATCCAGCGGAGTCACCTAGTGCAG | 3680 fluorescence intensity (a.u.)
18 | TAACTAATTACACAGATTGCGTGTAAATTACGAGACAAATCGGAGTCACCTAGTGCAG | 3240 fluorescence intensity (a.u.)
19 | AGCCTCCAGGCATTGGCGCGCACAGAGGCAGACACGTTGGCGGAGTCACCTAGTGCAG | 5450 fluorescence intensity (a.u.)
20 | GGAATGCAGCGCGAGAAGCCACGACGCGTAGTAGCTGGAGCGGAGTCACCTAGTGCAG | 3220 fluorescence intensity (a.u.)
21 | GTACATATATGAATTGTGTGCGATAGCACGGCAATGATGACGGAGTCACCTAGTGCAG | 3170 fluorescence intensity (a.u.)

Fetched one by one from the list above, two records:
Row | Sequence | binding signal
5 | CCGTTGTTGGTCGGAGCATCACCTGGGCGGTGTTTCCCTGCGGAGTCACCTAGTGCAG | 15800 fluorescence intensity (a.u.)
6 | AAGGTTTGAATCCTCCTACCTACGCATGCTTCGGAATCCTCGGAGTCACCTAGTGCAG | 3300 fluorescence intensity (a.u.)

Next results.

Row | Sequence | binding signal
22 | TGAAGCTTCTCCGCGCGAAGGAGGCGGAGGTGGCGTCCGTCGGAGTCACCTAGTGCAG | 3270 fluorescence intensity (a.u.)
23 | AATGTACATAACACAAGCACATCTTGTATGACAAGGATTCCGGAGTCACCTAGTGCAG | 3930 fluorescence intensity (a.u.)
24 | CGACGCCTCGTCCTCGTCCGGTGCCTTCCAGCCTTGCGCACGGAGTCACCTAGTGCAG | 25300 fluorescence intensity (a.u.)
25 | CGTATGTATACCATATCGATGTGTGACGTATATCGAAGGGCGGAGTCACCTAGTGCAG | 3720 fluorescence intensity (a.u.)
26 | AAGCTGCTGAGTTCACAGGACGTGTGAGTCAGCAAAGAAGCGGAGTCACCTAGTGCAG | 9980 fluorescence intensity (a.u.)
27 | TTCGGCGCCGTGGCGTCAGTCCGCCCCTACCGCCGCTCGACGGAGTCACCTAGTGCAG | 4400 fluorescence intensity (a.u.)
28 | ATATACATATACATATATATACACACACACGTATACATAGCGGAGTCACCTAGTGCAG | 4840 fluorescence intensity (a.u.)
29 | TGTCCCATCCGATACGACATGTCAGTCTCACTCCTCTCTTCGGAGTCACCTAGTGCAG | 3360 fluorescence intensity (a.u.)
30 | AGAGGAGATGACGTTGTGCTTGCGCTCCCTGCACCGCCTTCGGAGTCACCTAGTGCAG | 3970 fluorescence intensity (a.u.)
31 | AAACCGCCACGTCCCCTCTCCCGAAGCTCCCCACGGCCAGCGGAGTCACCTAGTGCAG | 8240 fluorescence intensity (a.u.)
32 | TTTGCGTGCGTGTGTTCATAGCGGTGAGTGCGCGTGCGTTCGGAGTCACCTAGTGCAG | 6190 fluorescence intensity (a.u.)
33 | TCCAAGCCGTCCACTCCCCTCCGATCCAACGGTCCAAACCCGGAGTCACCTAGTGCAG | 21800 fluorescence intensity (a.u.)
34 | CTCCGTCGCTGACTGCAACCTCCACCCACACGGCACCCATCGGAGTCACCTAGTGCAG | 3660 fluorescence intensity (a.u.)
35 | ATGCTATTATATAAGAGAAAATATAATGATGCTGGCCGTGCGGAGTCACCTAGTGCAG | 3240 fluorescence intensity (a.u.)
36 | GCCTGATGTGTTGATGTGCTGCTGTTCAGACTTTGAACCTCGGAGTCACCTAGTGCAG | 3330 fluorescence intensity (a.u.)
37 | AGAGTGTTCAATTGTATACAGTTACCAATACAGCTAGTGTCGGAGTCACCTAGTGCAG | 29700 fluorescence intensity (a.u.)
38 | GAGCGGTTGTTTGCTTAGTTGTATCAATTAGGTCTACACGCGGAGTCACCTAGTGCAG | 3170 fluorescence intensity (a.u.)
39 | GGTGAATGATCAAGATACGTATGGATTGCATGTTTGCTCACGGAGTCACCTAGTGCAG | 3420 fluorescence intensity (a.u.)
40 | TTTTCTTCCCTTCTCACTCCTCCACGTCAGATTTGGCTGACGGAGTCACCTAGTGCAG | 20600 fluorescence intensity (a.u.)
41 | TTATATAATTGTCATGATGAATTACTGCCTTGTCATCTGACGGAGTCACCTAGTGCAG | 23600 fluorescence intensity (a.u.)
42 | TAACGACCAATCGAGCCTACTAGTATAAATTGTACCTCGTCGGAGTCACCTAGTGCAG | 31400 fluorescence intensity (a.u.)
